Source: article PMC5818915
Results are given in words; binding and its absence hold for the method and conditions named. In cells and extracts the contact can be indirect. Binding calls can cover weak binding; strength is not graded here.

Protein sequences, listed by entry. Tags and fused reporters are not part of them. Lines headed by an entry give the natural chain unless they say otherwise; changes in a name come on top.
UniProt P19263: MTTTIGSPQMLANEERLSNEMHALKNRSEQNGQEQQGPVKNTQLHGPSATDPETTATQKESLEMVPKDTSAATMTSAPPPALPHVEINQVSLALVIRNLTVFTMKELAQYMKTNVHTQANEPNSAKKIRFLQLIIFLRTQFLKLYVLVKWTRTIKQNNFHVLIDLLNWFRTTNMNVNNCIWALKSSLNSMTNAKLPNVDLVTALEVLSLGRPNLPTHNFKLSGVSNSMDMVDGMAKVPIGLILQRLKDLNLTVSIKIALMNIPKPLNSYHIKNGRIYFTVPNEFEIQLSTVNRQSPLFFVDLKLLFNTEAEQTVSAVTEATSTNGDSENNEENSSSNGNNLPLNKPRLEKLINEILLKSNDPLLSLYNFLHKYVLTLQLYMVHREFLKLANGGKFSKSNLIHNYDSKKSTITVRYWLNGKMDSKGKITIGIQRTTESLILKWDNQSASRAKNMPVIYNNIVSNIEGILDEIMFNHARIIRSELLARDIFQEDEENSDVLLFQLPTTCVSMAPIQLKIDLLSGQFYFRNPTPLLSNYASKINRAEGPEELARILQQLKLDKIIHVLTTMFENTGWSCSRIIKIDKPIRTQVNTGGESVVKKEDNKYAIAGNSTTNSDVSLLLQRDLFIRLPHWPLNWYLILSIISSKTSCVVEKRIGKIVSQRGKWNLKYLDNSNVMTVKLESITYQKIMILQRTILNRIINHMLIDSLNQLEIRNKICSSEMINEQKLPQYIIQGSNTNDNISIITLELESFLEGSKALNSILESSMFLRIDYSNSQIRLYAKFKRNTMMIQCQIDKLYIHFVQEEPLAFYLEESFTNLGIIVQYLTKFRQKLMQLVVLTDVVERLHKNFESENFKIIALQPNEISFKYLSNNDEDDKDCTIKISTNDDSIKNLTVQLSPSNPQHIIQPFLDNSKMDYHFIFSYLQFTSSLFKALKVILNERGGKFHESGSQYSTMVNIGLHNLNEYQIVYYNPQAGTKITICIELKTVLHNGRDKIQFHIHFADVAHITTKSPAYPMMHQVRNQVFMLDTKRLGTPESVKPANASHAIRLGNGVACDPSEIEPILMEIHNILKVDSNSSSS
UniProt P38782: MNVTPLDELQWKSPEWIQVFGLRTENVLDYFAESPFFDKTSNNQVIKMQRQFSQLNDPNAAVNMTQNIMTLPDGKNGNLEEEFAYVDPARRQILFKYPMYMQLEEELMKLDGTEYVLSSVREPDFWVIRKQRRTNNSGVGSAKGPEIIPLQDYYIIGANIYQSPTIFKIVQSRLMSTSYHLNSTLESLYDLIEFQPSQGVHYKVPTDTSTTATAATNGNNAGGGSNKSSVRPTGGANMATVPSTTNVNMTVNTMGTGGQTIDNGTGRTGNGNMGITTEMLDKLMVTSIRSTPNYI

Target: Med14 (Rgr1/Med14), subunit of the Mediator complex (S. cerevisiae (endogenous in yeast)) (UniProt P19263)
Test: co-IP; WCEs of yeast strains expressing LexA-Med6p derivatives, DEAE column fractionation to enrich Pol II holoenzyme; immunopurified with beads-coupled anti-Med14 antibody; western with anti-LexA and anti-Med14

Row | binding | Substance
1 | binds | LexA-fused Med6p-Δ6 (deletion of amino acids 157–166) (from UniProt P38782)
2 | binds | LexA-fused Med6p-Δ5 (deletion of amino acids 125–134) (from UniProt P38782)
